# Test results reported in patent US8846329B1, “Microorganisms for producing organic acids” (Wisconsin Alumni Research Foundation, priority 2012, dated 2014).
# System: Synechococcus sp. PCC 7002
# Test: Minimum inhibitory concentration of organic acids / growth inhibition
# Assay type: cell-based
# Conditions: solid medium
# From the text: One aspect of the increased tolerance to organic acids is an increase in the minimal inhibitory concentration (MIC) of a particular organic acid compared to a corresponding microorganism. MIC is the lowest concentration of an agent that will inhibit growth of a microorganism. An MIC can be determined by titrating the agent in the growth medium of the microorganism. The lowest concentration of the agent in which the microorganism is no longer able to grow is the MIC. Methods of culturing microorganisms and of detecting their growth are well known in the art and are not discussed in detail herein.
# The minimum inhibitory concentrations (MIC) for PCC 7002, Synechococcus sp. PCC 7942, and Synechocystis sp. PCC 6803 were determined for acrylic acid, 3HP, and propionic acid at a pH of about 8 (Table 1).
compound,measurement,setting,value
C=CC(=O)O [acrylic acid],Mutation frequency when selecting for growth,50 μM acrylic acid,7×10^−6
same,Mutation frequency when selecting for growth,5 mM acrylic acid,4×10^−6
